The other results are listed elsewhere or left out.
molecular target: OsWRKY34 (Oryza sativa, UniProt Q0JBA9 1-250); assay: protein-binding microarray (RPBM); PBS, 2% BSA, 51.3 ng/ul salmon testes DNA, 50 uM zinc acetate, 200 nM TF, 25 C, 1 h; high values mean tight binding; conditions: protein: recombinant; tags: N-terminal polyhistidine and DsRed monomer fusion (pET32a); label: CyDye5-dUTP incorporated in the synthesized complementary strand; 3' TTTTT single-stranded linker to array surface; dsDNA, one strand shown
Summary of the method: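 For the binding signal, per-feature fluorescence intensity was read in arbitrary units on an Axon 4000B scanner. Before scanning, a 2% BSA-blocked custom Agilent array made double-stranded with Cy5-dUTP was washed after 1 h at 25 °C with 200 nM protein and 50 µM zinc acetate. The proteins were Ni–NTA-purified transcription factors with N-terminal polyhistidine and DsRed fusions, expressed in E. coli BL21-CodonPlus.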

The chains behind the UniProt entries cited, without tags or fusion partners.
UniProt Q0JBA9, entry or part of it: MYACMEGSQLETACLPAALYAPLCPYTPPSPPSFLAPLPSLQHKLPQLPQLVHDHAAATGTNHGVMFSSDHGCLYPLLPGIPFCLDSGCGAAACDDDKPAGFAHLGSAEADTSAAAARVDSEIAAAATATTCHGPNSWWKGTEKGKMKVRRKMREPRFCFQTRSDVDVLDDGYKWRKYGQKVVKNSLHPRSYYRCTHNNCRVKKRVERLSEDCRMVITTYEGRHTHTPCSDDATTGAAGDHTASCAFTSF

Question: “GTTGATGAGTTTGTAAGGGTGCTCTTTTTAGAGAGGGAGGCGGAGTCACCTAGTGCAG” was tested. Which binding signal did it give?
Answer: 8140 fluorescence intensity (a.u.)

Question: Which binding signal does the source give for “ATCTCTTGTGGCCTGAGTTTTTGGAGCTCTTCTCGTTGAACGGAGTCACCTAGTGCAG” here?
Answer: 8320 fluorescence intensity (a.u.)

Question: With “GCACGTGATGCTGATCCATCCATTGCTTGCGCGGCGGTGACGGAGTCACCTAGTGCAG” as the sequence, how does the binding signal read?
Answer: 8340 fluorescence intensity (a.u.)

Question: With “GTTCACGCTGTTACGTACGCCCGCGGTCGTCACGACCGCACGGAGTCACCTAGTGCAG” as the sequence, how does the binding signal read?
Answer: 8400 fluorescence intensity (a.u.)

Question: For “GTACCAAATGTTCCTTACTTTCTACTACATCCGTCTCAAACGGAGTCACCTAGTGCAG”, which binding signal is on record?
Answer: 8260 fluorescence intensity (a.u.)

Question: “CGTCGTAGGTAGTGTTCCCTTCAAACTTTCAACTTTTCCACGGAGTCACCTAGTGCAG” was tested. Which binding signal did it give?
Answer: 8590 fluorescence intensity (a.u.)

Question: Which binding signal does the source give for “CAATGGTGGTTTATCTTAAAGAGTACTACATCCGTCACAACGGAGTCACCTAGTGCAG” here?
Answer: 8630 fluorescence intensity (a.u.)

Question: “AATAGCTCACCATTCAGTTTCAATAGTTTATGTTAATGTTCGGAGTCACCTAGTGCAG” was tested. Which binding signal did it give?
Answer: 8140 fluorescence intensity (a.u.)

Question: Which binding signal does the source give for “GCCACAGCACTTACCCTGTCATCCTTGCCCTGCTATCATTCGGAGTCACCTAGTGCAG” here?
Answer: 8230 fluorescence intensity (a.u.)

Question: “GAACCTATACATTCGCCACACTCCCCTGCTTCGCTTGCTTCGGAGTCACCTAGTGCAG” was tested. Which binding signal did it give?
Answer: 8670 fluorescence intensity (a.u.)

Question: Which binding signal does the source give for “CTCTCTCTCTCTCTCTCTCTCTCTTCCCACTCTCTCCTGCCGGAGTCACCTAGTGCAG” here?
Answer: 9220 fluorescence intensity (a.u.)

Question: For “GCCGCTCACAGCCGTCTTCGCTTGCCCGCCGCCATCGCCACGGAGTCACCTAGTGCAG”, which binding signal is on record?
Answer: 17500 fluorescence intensity (a.u.)

Question: “CCTCCGCCCTGAGCCCCGGCAGCTTTGTTTTGGCCTCTCCCGGAGTCACCTAGTGCAG” was tested. Which binding signal did it give?
Answer: 8620 fluorescence intensity (a.u.)

Question: For “TGTGATGGACTTTTGGCATTGTGATTTGTGCAATTGGAACCGGAGTCACCTAGTGCAG”, which binding signal is on record?
Answer: 8590 fluorescence intensity (a.u.)

Question: Which binding signal does the source give for “GTCTCCACCGCGCCAATCCGCCACCGCCGTTAGCTTCGCCCGGAGTCACCTAGTGCAG” here?
Answer: 9280 fluorescence intensity (a.u.)

Question: Which binding signal does the source give for “CGCGGTGTGCCGGGGAGGGAGGTGGTGGTTGAGGTTGAGGCGGAGTCACCTAGTGCAG” here?
Answer: 11700 fluorescence intensity (a.u.)

Question: “CACACAAAATAGACTTATTCCTTTAATTTCCTCGAGCAACCGGAGTCACCTAGTGCAG” was tested. Which binding signal did it give?
Answer: 9440 fluorescence intensity (a.u.)

Question: “CCTAGCTACCTCACACACAGCCCACACCACCTCTCATCGACGGAGTCACCTAGTGCAG” was tested. Which binding signal did it give?
Answer: 9050 fluorescence intensity (a.u.)

Question: How did the binding signal turn out when “GACATATAGGCCCCACGTAATTTTTTTAATTTTTTTTCTGCGGAGTCACCTAGTGCAG” was run?
Answer: 8310 fluorescence intensity (a.u.)

Question: With “GGCGAGGACAACCGATCTTCGGTCTCCTACTTCTTCTCTTCGGAGTCACCTAGTGCAG” as the sequence, how does the binding signal read?
Answer: 8100 fluorescence intensity (a.u.)

Question: How did the binding signal turn out when “CAAATTTCGCAAGGGCGATTTTTGGGTGGGTAGGTATAAACGGAGTCACCTAGTGCAG” was run?
Answer: 10400 fluorescence intensity (a.u.)

Question: Which binding signal does the source give for “GATTGATCTCATTATTTCCTTCCCTTCAATTTCTTAATTCCGGAGTCACCTAGTGCAG” here?
Answer: 9810 fluorescence intensity (a.u.)

Question: With “CTAACCAATCATCAAATTGTCACTGAAGTCCAAGCTACAACGGAGTCACCTAGTGCAG” as the sequence, how does the binding signal read?
Answer: 8150 fluorescence intensity (a.u.)

Question: How did the binding signal turn out when “TGGATTGATCACCAGATGGAATATCCCGTGTACGCTTTCCCGGAGTCACCTAGTGCAG” was run?
Answer: 8060 fluorescence intensity (a.u.)

Question: How did the binding signal turn out when “CCATGTCGCCGCCGCCGACCACCCGGACGCCCTCCGCGCGCGGAGTCACCTAGTGCAG” was run?
Answer: 11500 fluorescence intensity (a.u.)

Question: For “AAATCCTATGTTTTTCTTATTCTTTTATTTTTTCAACCCTCGGAGTCACCTAGTGCAG”, which binding signal is on record?
Answer: 8280 fluorescence intensity (a.u.)

Question: Which binding signal does the source give for “CCGCTGCTTGGTCTCGTTTGGTTCCATCCGCTATGGCAGGCGGAGTCACCTAGTGCAG” here?
Answer: 8710 fluorescence intensity (a.u.)

Question: For “TTGGGGCTAGTGTATTAGAATTAGTATAGATGTGATATATCGGAGTCACCTAGTGCAG”, which binding signal is on record?
Answer: 8060 fluorescence intensity (a.u.)

Question: With “ACTTAATATTGGCCCACTTAACTAGTCGGACACATTGTCCCGGAGTCACCTAGTGCAG” as the sequence, how does the binding signal read?
Answer: 8320 fluorescence intensity (a.u.)

Question: “GTCGTCACTCACTCCACCGTACTACACTCGCCTTCTTCTCCGGAGTCACCTAGTGCAG” was tested. Which binding signal did it give?
Answer: 9320 fluorescence intensity (a.u.)

Question: For “GTGGGCAGATTTAGTTTTAATGGGTGTGGGTACGGAGAGTCGGAGTCACCTAGTGCAG”, which binding signal is on record?
Answer: 8900 fluorescence intensity (a.u.)

Question: How did the binding signal turn out when “CTTCTCTACTTTGACCATACGGGTTTCGCATCAAACAAAACGGAGTCACCTAGTGCAG” was run?
Answer: 12200 fluorescence intensity (a.u.)

Question: For “ATAGGTGTGCTGATATCTCTATGTTTGGCTGGGAATCGGACGGAGTCACCTAGTGCAG”, which binding signal is on record?
Answer: 13800 fluorescence intensity (a.u.)

Question: For “TTATCTAAATGTCCGGATTGCCCTTTCTCTTTCCTTCTTTCGGAGTCACCTAGTGCAG”, which binding signal is on record?
Answer: 10200 fluorescence intensity (a.u.)

Question: For “TGGATCATTGCTTATCTTTGTTGTTCTTCTTTCAGTATATCGGAGTCACCTAGTGCAG”, which binding signal is on record?
Answer: 11200 fluorescence intensity (a.u.)

Question: “CATGCCAATCATAAATAATGACATATTGGTTGACTTTTTGCGGAGTCACCTAGTGCAG” was tested. Which binding signal did it give?
Answer: 11000 fluorescence intensity (a.u.)

Question: For “AGGGTAAGAGGAGGAGGAGGAGGGGTAGGCGAGGGAGATGCGGAGTCACCTAGTGCAG”, which binding signal is on record?
Answer: 8490 fluorescence intensity (a.u.)

Question: “CAGCTTGCCGCTGTTTTTTCCTTTTCTGTTGGTATATATTCGGAGTCACCTAGTGCAG” was tested. Which binding signal did it give?
Answer: 10800 fluorescence intensity (a.u.)

Question: For “GCACACCATCAACCCAGCCTCGTCACGGAGCCATCGACGACGGAGTCACCTAGTGCAG”, which binding signal is on record?
Answer: 8190 fluorescence intensity (a.u.)

Question: “GAGCTTTTGATCTAGTCGGGTAGTCCTCTTGGGTGTTTGACGGAGTCACCTAGTGCAG” was tested. Which binding signal did it give?
Answer: 8420 fluorescence intensity (a.u.)

Question: How did the binding signal turn out when “TAGTGTTGCTTGCAGTCTTGTTTTGTCATTCGTGCTAATCCGGAGTCACCTAGTGCAG” was run?
Answer: 9070 fluorescence intensity (a.u.)

Question: “AACACGTCCGCGCCTCCGCGATTTCTTTTCTCCTATTAACCGGAGTCACCTAGTGCAG” was tested. Which binding signal did it give?
Answer: 8520 fluorescence intensity (a.u.)

Question: How did the binding signal turn out when “ATTTTAATTAATCTCGTGTTGGGTTCTTATATGGTTTTTCCGGAGTCACCTAGTGCAG” was run?
Answer: 8350 fluorescence intensity (a.u.)

Question: With “ACCCACCACTCCGTCCGCACGCCACCACTTCGTCCGCACGCGGAGTCACCTAGTGCAG” as the sequence, how does the binding signal read?
Answer: 9560 fluorescence intensity (a.u.)

Question: Which binding signal does the source give for “CATTTTTTGCCACCATTAGTTTACCGGCCGTAAGCATGTCCGGAGTCACCTAGTGCAG” here?
Answer: 9590 fluorescence intensity (a.u.)

Question: “ATGTACTTTTTTATTTTTTTTGCTGACTATGATGCCACGTCGGAGTCACCTAGTGCAG” was tested. Which binding signal did it give?
Answer: 9690 fluorescence intensity (a.u.)

Question: How did the binding signal turn out when “ATAGACAGTTCAGGGTTAAAATATTTCGGTTTTGTGGTTTCGGAGTCACCTAGTGCAG” was run?
Answer: 8490 fluorescence intensity (a.u.)

Question: With “TTTCAGCTTCCATCATCACCATCACTACTATTCACTACTTCGGAGTCACCTAGTGCAG” as the sequence, how does the binding signal read?
Answer: 8500 fluorescence intensity (a.u.)

Question: For “TCTGGACTGTGTGTTCTTCTTTGGTGGCAGATTTGGTTTGCGGAGTCACCTAGTGCAG”, which binding signal is on record?
Answer: 10300 fluorescence intensity (a.u.)

Question: How did the binding signal turn out when “TGCAATCTTTCGTAACAATCTCTGCCACGGTGCACCCCTCCGGAGTCACCTAGTGCAG” was run?
Answer: 8540 fluorescence intensity (a.u.)

Question: How did the binding signal turn out when “GACAGACACTTGCACTTGCTCTCCGCTGCCGTTCCCCTTCCGGAGTCACCTAGTGCAG” was run?
Answer: 8500 fluorescence intensity (a.u.)

Question: With “GCCGCCAGCTCACCCTGACACGCACGCCACGTGCGCCACCCGGAGTCACCTAGTGCAG” as the sequence, how does the binding signal read?
Answer: 8470 fluorescence intensity (a.u.)

Question: How did the binding signal turn out when “TAATCCGCTACGTTGCCCTGGTTTGTCTGTGCATTTTTCGCGGAGTCACCTAGTGCAG” was run?
Answer: 8230 fluorescence intensity (a.u.)

Question: For “AATCGTTGTCTCCTACAGTAACATTTTCACACATTGCACACGGAGTCACCTAGTGCAG”, which binding signal is on record?
Answer: 9080 fluorescence intensity (a.u.)
